These results are taken from publication PMC7955166.

Numbering of substitutions follows the chain as printed. These are yes or no findings as the source states them, for the method shown. For some of these results: In cells and extracts the contact can be indirect. Some entries that bind do so weakly or less than the wild type. Sequences can lack the tags named with a protein.

Experiment [1] has as its target T1, MBP-CYRI-A (mouse) (UniProt Q8BHZ0).
T1 sequence: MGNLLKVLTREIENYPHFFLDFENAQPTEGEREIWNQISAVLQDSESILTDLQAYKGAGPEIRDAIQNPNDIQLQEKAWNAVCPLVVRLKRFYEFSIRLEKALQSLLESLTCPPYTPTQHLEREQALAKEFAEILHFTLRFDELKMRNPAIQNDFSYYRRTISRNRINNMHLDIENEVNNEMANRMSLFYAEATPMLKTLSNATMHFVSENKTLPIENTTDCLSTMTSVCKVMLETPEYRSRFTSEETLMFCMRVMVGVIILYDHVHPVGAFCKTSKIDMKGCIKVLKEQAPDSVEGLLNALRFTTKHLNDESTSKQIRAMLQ
As to the kind of experiment: pull-down; MBP pulldown competition: as the MBP pulldown with HA-CYRI-B, with 0, 1, 5, 10 and 30μg active Rac1 Q61L added to 500μl; blots with anti-MBP, anti-HA, anti-Rac1/2/3; both purified.

For experiment [2], the target named is T1, MBP-CYRI-A (mouse). The experiment can be described thus: pull-down; MBP-tagged CYRI on MBP beads; 30μg purified HA-tagged protein in Binding Buffer (50mM Tris 7.5, 50mM NaCl, 5mM MgCl2, 0.1% Tx100), 500μl, 90min at 4°C, 5 washes; blot with HA antibody; both purified.
For a further experiment, the target named is T2, MBP-CYRI-A R159D (mouse) (UniProt Q8BHZ0).
T2 sequence: T1 sequence with R159D
The description is as above.

Experiment [3] deals with T3, MBP-CYRI-A R159D R160D (double mutant) (mouse) (UniProt Q8BHZ0).
T3 sequence: T1 sequence with R159D, R160D
The description is as above.

The next experiment concerns the target T4, MBP-CYRI-A R160D (mouse) (UniProt Q8BHZ0).
T4 sequence: T1 sequence with R160D
Described as above.

The target of experiment [4] is T5, P17-HA-CYRI-B (not stated (human or mouse cDNA cloned)) (UniProt Q921M7).
T5 sequence: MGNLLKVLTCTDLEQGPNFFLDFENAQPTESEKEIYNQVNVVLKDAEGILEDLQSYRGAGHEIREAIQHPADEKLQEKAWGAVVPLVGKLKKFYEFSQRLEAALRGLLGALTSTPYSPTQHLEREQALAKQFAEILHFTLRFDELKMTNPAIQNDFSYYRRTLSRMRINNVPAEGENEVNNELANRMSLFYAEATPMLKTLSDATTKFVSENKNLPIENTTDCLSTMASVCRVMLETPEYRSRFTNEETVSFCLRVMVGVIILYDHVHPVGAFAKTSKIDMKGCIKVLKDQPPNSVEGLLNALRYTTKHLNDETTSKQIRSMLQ
As to the kind of experiment: proximity ligation; COS-7 cells co-transfected with CYRI-A-FLAG and P17-HA-CYRI-B for 24h; Duolink with anti-FLAG and anti-HA.

B1: HA-CYRI-B (protein, UniProt Q921M7 1-324)
chain: T5 sequence
Regarding B1, the binding entry is given as “binds” in the experiment with MBP-CYRI-A (mouse) [1]; “binds weakly” in the experiment with MBP-CYRI-A (mouse) [2]; “binds weakly” in the experiment with MBP-CYRI-A R159D (mouse); “binds weakly” in experiment [3]; “binds weakly” with MBP-CYRI-A R160D (mouse).

B2: CYRI-A-FLAG (protein, UniProt Q8BHZ0 1-323)
chain: T1 sequence
For the molecule B2, the binding entry in experiment [4] is “binds”.

B3: CYRI-A-FLAG RRDD mutant (protein, UniProt Q8BHZ0 1-323)
chain: T1 sequence with R159D, R160D
For the molecule B3, the binding result in experiment [4] is given as “binds”.
